{
  "sequences": {"note": "Amino acid sequences for entries named in this document (tags omitted). A change or cut given only in a name is not applied to a line headed by its entry.", "UniProt Q96CV9, whole entry": "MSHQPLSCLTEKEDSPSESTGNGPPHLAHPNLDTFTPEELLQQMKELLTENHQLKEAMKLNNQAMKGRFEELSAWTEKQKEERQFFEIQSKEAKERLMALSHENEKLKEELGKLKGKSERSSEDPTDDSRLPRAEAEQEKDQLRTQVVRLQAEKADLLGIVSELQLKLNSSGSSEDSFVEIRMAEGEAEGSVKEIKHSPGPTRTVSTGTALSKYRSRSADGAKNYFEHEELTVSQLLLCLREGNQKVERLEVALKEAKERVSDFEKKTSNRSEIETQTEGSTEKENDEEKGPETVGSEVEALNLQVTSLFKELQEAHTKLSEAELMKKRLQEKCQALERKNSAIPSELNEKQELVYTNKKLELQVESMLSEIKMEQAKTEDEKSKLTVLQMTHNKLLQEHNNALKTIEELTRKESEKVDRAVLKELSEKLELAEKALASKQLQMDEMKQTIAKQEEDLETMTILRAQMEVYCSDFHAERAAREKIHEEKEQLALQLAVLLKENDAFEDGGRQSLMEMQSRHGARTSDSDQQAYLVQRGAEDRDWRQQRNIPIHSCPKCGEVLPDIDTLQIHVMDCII", "UniProt Q96EP0, whole entry": "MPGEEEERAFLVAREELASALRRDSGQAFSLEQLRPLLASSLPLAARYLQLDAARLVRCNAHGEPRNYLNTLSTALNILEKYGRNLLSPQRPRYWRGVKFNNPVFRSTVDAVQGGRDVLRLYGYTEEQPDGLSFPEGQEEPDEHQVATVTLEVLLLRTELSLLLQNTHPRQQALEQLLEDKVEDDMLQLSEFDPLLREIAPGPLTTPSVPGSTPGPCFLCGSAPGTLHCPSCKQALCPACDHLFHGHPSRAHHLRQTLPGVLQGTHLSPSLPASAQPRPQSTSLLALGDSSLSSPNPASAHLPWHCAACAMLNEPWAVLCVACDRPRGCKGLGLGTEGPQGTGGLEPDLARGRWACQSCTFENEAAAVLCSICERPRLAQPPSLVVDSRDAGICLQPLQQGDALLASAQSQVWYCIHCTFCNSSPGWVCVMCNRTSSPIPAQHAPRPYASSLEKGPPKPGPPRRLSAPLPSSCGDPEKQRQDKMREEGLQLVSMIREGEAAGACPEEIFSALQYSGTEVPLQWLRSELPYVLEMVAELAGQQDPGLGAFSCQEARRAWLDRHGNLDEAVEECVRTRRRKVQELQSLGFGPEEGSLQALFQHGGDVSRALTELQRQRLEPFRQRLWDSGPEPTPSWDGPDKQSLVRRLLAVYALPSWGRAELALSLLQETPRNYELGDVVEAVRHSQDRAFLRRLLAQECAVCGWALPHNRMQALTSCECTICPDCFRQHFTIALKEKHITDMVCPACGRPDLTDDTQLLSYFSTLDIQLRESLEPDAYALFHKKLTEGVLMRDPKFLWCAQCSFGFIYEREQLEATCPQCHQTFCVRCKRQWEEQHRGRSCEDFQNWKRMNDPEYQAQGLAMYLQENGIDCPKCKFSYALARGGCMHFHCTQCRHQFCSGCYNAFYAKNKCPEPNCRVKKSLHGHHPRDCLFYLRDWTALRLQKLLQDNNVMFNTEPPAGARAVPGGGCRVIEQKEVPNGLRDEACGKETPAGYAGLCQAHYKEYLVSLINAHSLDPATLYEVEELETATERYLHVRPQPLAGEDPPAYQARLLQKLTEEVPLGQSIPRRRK"},
  "source": "paper doi:10.1101/744672",
  "experiment_in_all_cases": "co-IP",
  "key": {"GFP-OPTN wild-type": {"target": "GFP-OPTN wild-type (UniProt Q96CV9)"}, "GFP-OPTN E50K": {"target": "GFP-OPTN E50K (UniProt Q96CV9)"}, "GFP-OPTN E478G": {"target": "GFP-OPTN E478G (UniProt Q96CV9)"}},
  "note": "Results are given in words; binding and its absence hold for the method and conditions named. In cells and extracts the contact can be indirect. Some entries that bind do so weakly or less than the wild type.",
  "data": [
    {"substance": "HA-HOIP (from UniProt Q96EP0 1-1072)", "values": [
      {"measurement": "binding", "setting": "GFP-OPTN wild-type", "value": "binds"},
      {"measurement": "binding", "setting": "GFP-OPTN E50K", "value": "binds"},
      {"measurement": "binding", "setting": "GFP-OPTN E478G", "value": "no binding"}
    ]}
  ]
}
